# Data reported in paper PMC9170289.
# These are yes or no findings as the source states them, for the method shown. Some results given as binding are weak or reduced against the parent protein; the word gives no strength.
# T1: Pat1 (S. cerevisiae) (UniProt P25644)
# T1 sequence: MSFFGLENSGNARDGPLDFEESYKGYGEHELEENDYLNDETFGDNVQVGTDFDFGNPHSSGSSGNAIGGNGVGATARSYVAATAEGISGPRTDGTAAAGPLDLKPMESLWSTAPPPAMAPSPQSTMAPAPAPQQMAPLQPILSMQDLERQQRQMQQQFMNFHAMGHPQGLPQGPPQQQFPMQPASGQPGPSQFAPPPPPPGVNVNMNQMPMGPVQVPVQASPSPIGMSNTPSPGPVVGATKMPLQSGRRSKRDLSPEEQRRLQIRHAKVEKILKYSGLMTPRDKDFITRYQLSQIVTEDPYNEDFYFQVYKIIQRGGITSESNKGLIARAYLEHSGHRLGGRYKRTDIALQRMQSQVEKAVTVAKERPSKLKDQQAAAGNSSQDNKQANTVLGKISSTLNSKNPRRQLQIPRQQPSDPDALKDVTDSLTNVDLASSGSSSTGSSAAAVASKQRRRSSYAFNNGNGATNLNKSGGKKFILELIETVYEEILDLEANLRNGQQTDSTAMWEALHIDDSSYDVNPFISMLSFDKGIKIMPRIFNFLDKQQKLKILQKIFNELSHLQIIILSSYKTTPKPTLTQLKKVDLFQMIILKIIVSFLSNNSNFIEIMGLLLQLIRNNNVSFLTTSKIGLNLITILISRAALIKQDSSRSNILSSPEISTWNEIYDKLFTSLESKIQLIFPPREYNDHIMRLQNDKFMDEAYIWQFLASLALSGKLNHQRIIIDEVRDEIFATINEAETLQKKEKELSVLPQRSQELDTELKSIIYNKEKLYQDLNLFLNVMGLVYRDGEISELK
# T2: Dcp2 fragment ND415 (S. cerevisiae) (UniProt P53550)
# T2 sequence: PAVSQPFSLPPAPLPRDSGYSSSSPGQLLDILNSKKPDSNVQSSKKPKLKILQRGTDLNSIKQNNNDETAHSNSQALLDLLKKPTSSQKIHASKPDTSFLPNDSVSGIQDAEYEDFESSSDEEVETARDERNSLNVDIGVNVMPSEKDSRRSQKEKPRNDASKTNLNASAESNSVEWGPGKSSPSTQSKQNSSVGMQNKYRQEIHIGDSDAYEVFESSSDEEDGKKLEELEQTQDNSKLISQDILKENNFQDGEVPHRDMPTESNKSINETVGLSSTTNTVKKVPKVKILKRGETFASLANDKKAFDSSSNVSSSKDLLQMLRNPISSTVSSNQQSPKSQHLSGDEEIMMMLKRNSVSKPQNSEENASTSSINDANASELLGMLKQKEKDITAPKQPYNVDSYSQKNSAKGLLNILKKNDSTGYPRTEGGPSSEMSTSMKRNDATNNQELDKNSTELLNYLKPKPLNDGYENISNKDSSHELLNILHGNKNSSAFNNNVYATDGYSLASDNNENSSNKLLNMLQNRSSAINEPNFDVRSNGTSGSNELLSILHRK
# T3: Dcp2-ND244 (726-amino acid C-terminal fragment) (S. cerevisiae) (UniProt P53550)
# T3 sequence: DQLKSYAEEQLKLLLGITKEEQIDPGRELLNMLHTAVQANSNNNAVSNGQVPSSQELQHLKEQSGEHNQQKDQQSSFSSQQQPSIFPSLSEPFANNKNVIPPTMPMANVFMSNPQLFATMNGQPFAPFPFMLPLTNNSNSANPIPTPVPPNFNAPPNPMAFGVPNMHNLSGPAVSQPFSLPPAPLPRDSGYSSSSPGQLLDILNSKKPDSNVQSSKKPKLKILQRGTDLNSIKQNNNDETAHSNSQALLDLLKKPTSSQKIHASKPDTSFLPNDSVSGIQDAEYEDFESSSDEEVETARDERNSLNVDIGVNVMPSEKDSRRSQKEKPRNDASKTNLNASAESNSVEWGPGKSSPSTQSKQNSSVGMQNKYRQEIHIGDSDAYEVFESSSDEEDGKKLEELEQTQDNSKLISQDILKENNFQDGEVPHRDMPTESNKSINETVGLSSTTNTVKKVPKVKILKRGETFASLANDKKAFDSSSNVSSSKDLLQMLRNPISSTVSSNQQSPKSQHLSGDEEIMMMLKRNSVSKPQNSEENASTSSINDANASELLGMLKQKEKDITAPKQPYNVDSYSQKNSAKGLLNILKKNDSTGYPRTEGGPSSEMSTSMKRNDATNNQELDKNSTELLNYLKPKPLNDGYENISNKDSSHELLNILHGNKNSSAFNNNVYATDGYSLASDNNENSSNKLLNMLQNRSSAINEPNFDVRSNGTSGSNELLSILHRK
# T4: Dcp2 fragment N101-300 (S. cerevisiae) (UniProt P53550)
# T4 sequence: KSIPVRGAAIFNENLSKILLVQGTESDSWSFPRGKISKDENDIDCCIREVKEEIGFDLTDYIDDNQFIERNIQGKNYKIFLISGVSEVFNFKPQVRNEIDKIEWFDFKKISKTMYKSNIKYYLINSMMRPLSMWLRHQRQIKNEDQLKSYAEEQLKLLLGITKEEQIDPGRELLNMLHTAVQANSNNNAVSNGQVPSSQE
# Experiments:
# Test in all cases: two-hybrid; GAL4(DB) fusion and GAL4(AD) fusion cotransformed into the wild-type tester strain GGY1::171; X-Gal colony colour on SSX plates, 30°C; pairs said to be unaffected were also tested in upf1Δ, pat1Δ, scd6Δ, edc3Δ or dcp2-N245 derivatives
# Pat1 (S. cerevisiae) = molecular target: T1, Pat1 (S. cerevisiae)
# [1] = molecular target: T2, Dcp2 fragment ND415 (S. cerevisiae)
# [2] = molecular target: T3, Dcp2-ND244 (726-amino acid C-terminal fragment) (S. cerevisiae)
# [3] = molecular target: T4, Dcp2 fragment N101-300 (S. cerevisiae)
binder,measurement,setting,value
"Scd6 (protein, UniProt P45978 1-349) MSQYIGKTISLISVTDNRYVGLLEDIDSEKGTVTLKEVRCFGTEGRKNWGPEEIYPNPTVYNSVKFNGSEVKDLSILDANINDIQPVVPQMMPPASQFPPQQAQSPPQAQAQAHVQTNPQVPKPESNVPAAVAGYGVYTPTSTETATASMNDKSTPQDTNVNSQSRERGKNGENEPKYQRNKNRSSNRPPQSNRNFKVDIPNEDFDFQSNNAKFTKGDSTDVEKEKELESAVHKQDESDEQFYNKKSSFFDTISTSTETNTNMRWQEEKMLNVDTFGQASARPRFHSRGLGRGRGNYRGNRGNRGRGGQRGNYQNRNNYQNDSGAYQNQNDSYSRPANQFSQPPSNVEF",binding,Pat1 (S. cerevisiae),binds
same,binding,[1],binds weakly
same,binding,[2],binds
same,binding,[3],binds
